In patent publication US12351591B2, “KRas inhibitors” (ELI LILLY AND COMPANY, priority 2022, dated 2025):
Some of these results come from one statement about several compounds together.

These compounds were tested against T1, KRas wild-type (Homo sapiens, UniProt P01116) (assay: MKN-45 Cellular Active RAS GTPase ELISA (KRas Wild-type)). Details: PANC-1 versus MKN-45 Cellular Active RAS GTPase ELISA.
T1 construct: host or cells: MKN-45
Format: cell-based

Row | SMILES | selective inhibition preference for KRas G12D mutant over KRas wild-type
1 | COCCOCCCN1CC2CCC(C1)N2c1nc(OC[C@@]23CCCN2C[C@H](F)C3)nc2c(F)c(-c3ncc(F)c4sc(N)c(C#N)c34)c3c(c12)COC3 [Example 226, 2-Amino-7-fluoro-4-[5-fluoro-3-[[(2R,8S)-2-fluoro-1,2,3,5,6,7-hexahydropyrrolizin-8-yl]methoxy]-1-[3-[3-(2-methoxyethoxy)propyl]-3,8-diazabicyclo[3.2.1]octan-8-yl]-7,9-dihydrofuro[3,4-f]quinazolin-6-yl]thieno[3,2-c]pyridine-3-carbonitrile] | greater than 10 fold
2 | CN(C)C(=O)CCN1CC2CCC(C1)N2c1nc(OC[C@@]23CCCN2C[C@H](F)C3)nc2c(F)c(-c3c(F)ccc4sc(N)c(C#N)c34)c3c(c12)COC3 (single isomer, unassigned) [Example 190] | greater than 10 fold
3 | COC1CN(CCOc2nc(N3C4CCC3CN(CCCO)C4)c3c4c(c(-c5c(F)ccc6sc(N)c(C#N)c56)c(F)c3n2)COC4)C1 (single isomer, unassigned) [Example 217, 2-Amino-5-fluoro-4-[5-fluoro-1-[3-(3-hydroxypropyl)-3,8-diazabicyclo[3.2.1]octan-8-yl]-3-[2-(3-methoxyazetidin-1-yl)ethoxy]-7,9-dihydrofuro[3,4-f]quinazolin-6-yl]benzothiophene-3-carbonitrile] | greater than 10 fold
4 | C[C@@H](O)CN1CC2CCC(C1)N2c1nc(OCC2(N(C)C)CC2)nc2c(F)c(-c3c(F)ccc4sc(N)c(C#N)c34)c3c(c12)COC3 (single isomer, unassigned) [Example 187] | greater than 10 fold
5 | C[C@@H](O)CN1CC2CCC(C1)N2c1nc(OC[C@@]23CCCN2C[C@@H](F)C3)nc2c(F)c(-c3ncc(F)c4sc(N)c(C#N)c34)c3c(c12)COC3 (racemic) [Example 249, 2-Amino-7-fluoro-4-[5-fluoro-3-[[(2SR,8SR)-2-fluoro-1,2,3,5,6,7-hexahydropyrrolizin-8-yl]methoxy]-1-[3-[(2R)-2-hydroxypropyl]-3,8-diazabicyclo[3.2.1]octan-8-yl]-7,9-dihydrofuro[3,4-f]quinazolin-6-yl]thieno[3,2-c]pyridine-3-carbonitrile] | greater than 10 fold
6 | N#Cc1c(N)sc2ccc(F)c(-c3c4c(c5c(N6C7CNCC6C7)ncnc5c3F)COC4)c12 (single isomer, unassigned; isomer 2) [Example 9, 2-Amino-4-[1-(3,6-diazabicyclo[3.1.1]heptan-6-yl)-5-fluoro-7,9-dihydrofuro[3,4-f]quinazolin-6-yl]-5-fluoro-benzothiophene-3-carbonitrile, Isomer 2] | greater than 10 fold
7 | N#Cc1c(N)sc2c(F)ccc(-c3c4c(c5c(N6C7CCC6CN(C[C@H]6CCO6)C7)nc(OC[C@@]67CCCN6C[C@H](F)C7)nc5c3F)COC4)c12 (single isomer, unassigned) [Example 103] | greater than 10 fold
8 | COCCCN1CC2CCC(C1)N2c1nc(OCC23CCCN2CCC3)nc2c(F)c(-c3ncc(F)c4sc(N)c(C#N)c34)c3c(c12)COC3.O=CO [Example 239, 2-Amino-7-fluoro-4-[5-fluoro-3-(1,2,3,5,6,7-hexahydropyrrolizin-8-ylmethoxy)-1-[3-(3-methoxypropyl)-3,8-diazabicyclo[3.2.1]octan-8-yl]-7,9-dihydrofuro[3,4-f]quinazolin-6-yl]thieno[3,2-c]pyridine-3-carbonitrile formic acid] | greater than 10 fold
9 | CN1CC2CC(C1)N2c1nc(OC[C@@]23CCCN2C[C@H](F)C3)nc2c(F)c(-c3c(F)ccc4oc(N)c(C#N)c34)c3c(c12)COC3 (single isomer, unassigned) [Example 116] | greater than 10 fold
10 | CN1CC[C@H]1COc1cc(N2C3CCC2CNC3)c2c3c(c(-c4ccc(F)c5sc(N)c(C#N)c45)c(Cl)c2n1)COC3 [Example 20, 2-Amino-4-[5-chloro-9-(3,8-diazabicyclo[3.2.1]octan-8-yl)-7-[[(2S)-1-methylazetidin-2-yl]methoxy]-1,3-dihydrofuro[3,4-f]quinolin-4-yl]-7-fluoro-benzothiophene-3-carbonitrile] | greater than 10 fold
11 | N#Cc1c(N)sc2c(F)cnc(-c3c4c(c5c(N6C7CCC6CN(CCCF)C7)nc(OC[C@@]67CCCN6C[C@H](F)C7)nc5c3F)COC4)c12 [Example 372, 2-Amino-7-fluoro-4-[5-fluoro-3-[[(2R,8S)-2-fluoro-1,2,3,5,6,7-hexahydropyrrolizin-8-yl]methoxy]-1-[3-(3-fluoropropyl)-3,8-diazabicyclo[3.2.1]octan-8-yl]-7,9-dihydrofuro[3,4-f]quinazolin-6-yl]thieno[3,2-c]pyridine-3-carbonitrile] | greater than 10 fold
12 | C[C@@H](O)CN1CC2CCC(C1)N2c1nc(OC[C@@H]2CCCN2CCO)nc2c(F)c(-c3c(F)ccc4sc(N)c(C#N)c34)c3c(c12)COC3 (single isomer, unassigned) [Example 181] | greater than 10 fold
13 | CN1CCC(F)(F)C(COc2nc(N3C4CCC3CN(CCCO)C4)c3c4c(c(-c5c(F)ccc6sc(N)c(C#N)c56)c(F)c3n2)COC4)C1 (single isomer, unassigned) [Example 330, 2-Amino-4-[3-[(4,4-difluoro-1-methyl-3-piperidyl)methoxy]-5-fluoro-1-[3-(3-hydroxypropyl)-3,8-diazabicyclo[3.2.1]octan-8-yl]-7,9-dihydrofuro[3,4-f]quinazolin-6-yl]-5-fluoro-benzothiophene-3-carbonitrile] | greater than 10 fold
14 | N#Cc1c(N)sc2c(F)cnc(-c3c4c(c5c(N6C7CCC6CNC7)nc(OC[C@@]67CCCN6C[C@H](F)C7)nc5c3F)COC4)c12 [Example 64, 2-Amino-4-[1-(3,8-diazabicyclo[3.2.1]octan-8-yl)-5-fluoro-3-[[(2R,8S)-2-fluoro-1,2,3,5,6,7-hexahydropyrrolizin-8-yl]methoxy]-7,9-dihydrofuro[3,4-f]quinazolin-6-yl]-7-fluoro-thieno[3,2-c]pyridine-3-carbonitrile] | greater than 10 fold
15 | C[C@@H](O)CN1CC2CCC(C1)N2c1nc(OC[C@@H]2[C@@H](O)CCN2C)nc2c(F)c(-c3c(F)ccc4sc(N)c(C#N)c34)c3c(c12)COC3 (single isomer, unassigned) [Example 185] | greater than 10 fold
16 | Nc1nc2c(-c3c4c(c5c(N6C7CCC6CN(CCCO)C7)nc(OC[C@@]67CCCN6C[C@H](F)C7)nc5c3F)COC4)c(F)cc(F)c2s1 [Example 194, 3-[8-[6-(2-Amino-5,7-difluoro-1,3-benzothiazol-4-yl)-5-fluoro-3-[[(2R,8S)-2-fluoro-1,2,3,5,6,7-hexahydropyrrolizin-8-yl]methoxy]-7,9-dihydrofuro[3,4-f]quinazolin-1-yl]-3,8-diazabicyclo[3.2.1]octan-3-yl]propan-1-ol] | greater than 10 fold
17 | N#Cc1c(N)sc2c(F)ccc(-c3c4c(c5c(N6C7CCC6CNC7)cc(OC[C@@]67CCCN6C[C@H](F)C7)nc5c3F)COC4)c12 (single isomer, unassigned; isomer 1) [Example 45] | greater than 10 fold
18 | N#Cc1c(N)sc2c(F)cnc(-c3c4c(c5c(N6C7CCC6CN(CCO)C7)nc(OC[C@@]67CCCN6C[C@H](F)C7)nc5c3F)COC4)c12 [Example 125, 2-Amino-7-fluoro-4-[5-fluoro-3-[[(2R,8S)-2-fluoro-1,2,3,5,6,7-hexahydropyrrolizin-8-yl]methoxy]-1-[3-(2-hydroxyethyl)-3,8-diazabicyclo[3.2.1]octan-8-yl]-7,9-dihydrofuro[3,4-f]quinazolin-6-yl]thieno[3,2-c]pyridine-3-carbonitrile] | greater than 10 fold
19 | CN(C)CCOc1nc(N2C3CCC2CNC3)c2c3c(c(-c4ccc(F)c5sc(N)c(C#N)c45)c(Cl)c2n1)COC3 (single isomer, unassigned) [Example 17, 2-Amino-4-[5-chloro-1-(3,8-diazabicyclo[3.2.1]octan-8-yl)-3-[2-(dimethylamino)ethoxy]-7,9-dihydrofuro[3,4-f]quinazolin-6-yl]-7-fluoro-benzothiophene-3-carbonitrile] | greater than 10 fold
20 | N#Cc1c(N)sc2c(F)cnc(-c3c4c(c5c(N6C7CCC6CN(CCF)C7)nc(OC[C@@]67CCCN6C[C@H](F)C7)nc5c3F)COC4)c12 [Example 374, 2-Amino-7-fluoro-4-[5-fluoro-1-[3-(2-fluoroethyl)-3,8-diazabicyclo[3.2.1]octan-8-yl]-3-[[(2R,8S)-2-fluoro-1,2,3,5,6,7-hexahydropyrrolizin-8-yl]methoxy]-7,9-dihydrofuro[3,4-f]quinazolin-6-yl]thieno[3,2-c]pyridine-3-carbonitrile] | greater than 10 fold
21 | C[C@@H](O)CN1CC2CCC(C1)N2c1nc(OCC23CCCN2CCC3)nc2c(F)c(-c3ncc(F)c4sc(N)c(C#N)c34)c3c(c12)COC3 [Example 247, 2-Amino-7-fluoro-4-[5-fluoro-3-(1,2,3,5,6,7-hexahydropyrrolizin-8-ylmethoxy)-1-[3-[(2R)-2-hydroxypropyl]-3,8-diazabicyclo[3.2.1]octan-8-yl]-7,9-dihydrofuro[3,4-f]quinazolin-6-yl]thieno[3,2-c]pyridine-3-carbonitrile] | greater than 10 fold
22 | N#Cc1c(N)oc2c(F)ccc(-c3c4c(c5c(N6C7CCC6CN(CC6COC6)C7)nc(OC[C@@]67CCCN6C[C@H](F)C7)nc5c3F)COC4)c12 [Example 135, 2-Amino-7-fluoro-4-[5-fluoro-3-[[(2R,8S)-2-fluoro-1,2,3,5,6,7-hexahydropyrrolizin-8-yl]methoxy]-1-[3-(oxetan-3-ylmethyl)-3,8-diazabicyclo[3.2.1]octan-8-yl]-7,9-dihydrofuro[3,4-f]quinazolin-6-yl]benzofuran-3-carbonitrile] | greater than 10 fold
